The supplement of paper PMC12067093, “Discovery and optimisation of a covalent ligand for TRIM25 and its application to targeted protein ubiquitination” (Chemical Science, 2025)
The other results are listed elsewhere or left out.

Compound: Cc1cc(ccc1-c1ccccc1)C(=O)N1CCCN(CC1)C(=O)CCl [compound 10]
Assay: probe-labelled cysteine peptide fold change vs DMSO (competition) (log2 fold change); higher = less target engagement (more negative = stronger competition)
Conditions: THP-1, incubation time: 4 h
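Note: competitive profiling in live THP-1 cells: cysteine peptides tagged with an iodoacetamide desthiobiotin (IA-DTB) probe, intensity after compound treatment relative to DMSO-treated cells.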

With “GMIP_Q9P107_599_LCQAFENGR (UniProt Q9P107)” the “probe-labelled cysteine peptide fold change” value (10 µM) was 0.00442 and the “probe-labelled cysteine peptide fold change” value (50 µM) was 0.0787.
For “GNB1_P62873_204_LFVSGACDASAK (UniProt P62873)”, the “probe-labelled cysteine peptide fold change” value (10 µM) was -0.0971 and the “probe-labelled cysteine peptide fold change” value (50 µM) was -0.11.
In the case of “GNPNAT1_Q96EK6_150_KLNCYK (UniProt Q96EK6)”, the “probe-labelled cysteine peptide fold change” value (10 µM) is reported as -0.301 and the “probe-labelled cysteine peptide fold change” value (50 µM) is reported as 0.159.
For GNL3_Q9BVP2_113_EFGLCK (UniProt Q9BVP2), the “probe-labelled cysteine peptide fold change” value (10 µM) was -0.03 and the “probe-labelled cysteine peptide fold change” value (50 µM) was -0.371.
With “GLG1_Q92896_970_AKDDSELEGQVISCLK (UniProt Q92896)” the “probe-labelled cysteine peptide fold change” value (10 µM) was -0.176 and the “probe-labelled cysteine peptide fold change” value (50 µM) was 0.00524.
“GNAI2_P04899_112_QLFALSCTAEEQGVLPDDLSGVIR (UniProt P04899)” was tested, and the “probe-labelled cysteine peptide fold change” value (10 µM) was -0.0471 and the “probe-labelled cysteine peptide fold change” value (50 µM) was -0.343.
With “GLG1_Q92896_118_LAEEESCREDVTR (UniProt Q92896)” the “probe-labelled cysteine peptide fold change” value (10 µM) was -0.213 and the “probe-labelled cysteine peptide fold change” value (50 µM) was -0.117.
For “GPSM3_Q9Y4H4_116_ATFYTPQNPSSLAPAPLRPLEDREQLYSTILSHQCQR (UniProt Q9Y4H4)”, the “probe-labelled cysteine peptide fold change” value (10 µM) was 0.138 and the “probe-labelled cysteine peptide fold change” value (50 µM) was -0.288.
